Data taken from patent US7166695B2 (ConjuChem Biotechnologies Inc., priority 1997, dated 2007).

Assay: general procedure: Fmoc solid-phase peptide synthesis; Fmoc-Rink amide MBHA resin (NovaBiochem); HBTU/HOBt/DIEA
Details: whole synthesis; for final HPLC purity: analytical HPLC; for final HPLC purity / isolated yield: scale of the general procedure 0.250 mmol

**Q.** Which results are given for Biotin-Gly-OPh-CO-FlYEE-NH2?
**A.** isolated mass: 29.4 mg; final HPLC purity: >95%; isolated yield: 21%

**Q.** With “Fluorescein-thiourea-AEA3-Gly-OPh-CO-FlYEE-NH2” as the substance, how does the isolated mass read?
**A.** 6.4 mg

**Q.** What about the “final HPLC purity” value of the same substance?
**A.** >95%

**Q.** What about the isolated yield of the same substance?
**A.** 13%

**Q.** With “argatroban-AEA3-βAla-Gly-OPh-CO-FlYEE-NH2.2 TFA” as the substance, how does the crude mass read?
**A.** 29.7 mg

**Q.** And the isolated mass?
**A.** 6.7 mg

**Q.** What about the “final HPLC purity” value of the same substance?
**A.** >80%

**Q.** What about the isolated yield of the same substance?
**A.** 10%
